The other results are listed elsewhere or left out. The main result of the screen is listed elsewhere. These columns were measured beside it and carry no call. The list favours compounds with an active or inconclusive main result. Words in brackets tell the shape of the fitted curve; partial curves, single points and poor fits give uncertain potencies.
Test: Cell signaling CRE-BLA (Fsk stim)
Conditions: CHO CRE-bla reporter (cAMP response element driving beta-lactamase), forskolin EC10, beta-lactamase ratio; measured here: 460 nm blue channel
Procedure, shortened: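 Reporter-gene assay: CHO cells with beta-lactamase behind cAMP responsive elements, co-treated with compound and EC10 NKH 477 for 3 hours at 37 degrees Celsius. Activity came from the 460/530 nm CCF4 emission ratio.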

Compound	AC50
Cc1nc2sc3c(c2c(=O)[nH]1)CCCC3	3.98 µM [rising, single point]
Cn1c2c(c(=O)n(C)c1=O)CN(Cc1ccc3c(c1)OCO3)CN2	25.1 µM [rising, single point]
CCc1nc(N[C@@H](Cc2c[nH]c3ccccc23)C(=O)O)c2oc3ccccc3c2n1	12.6 µM [rising, single point]
COc1ccc(-c2csc(/C(C#N)=C(\O)CSc3nccn3C)n2)cc1OC	10 µM [rising, single point]
N#C[C@@H]1[C@@H]2C(=O)N(c3ccc4c(c3)OCCO4)C(=O)[C@@H]2C2c3ccccc3C=CN21 (stereo partly drawn)	25.1 µM [falling, single point]
CCOC(=O)c1c(C(=O)OCC)c(C)n(N2C(=O)CSC2=S)c1C	0.00316 µM [falling, full curve, poor fit]
N#Cc1nc(Cc2cccc3ccccc23)oc1NCCN1CCCCC1	25.1 µM [falling, single point]
COc1cc(NS(=O)(=O)c2ccc(NC(C)=O)cc2)cc(OC)c1	10 µM [falling, single point]
Cn1c(=O)n(C)c2cc(C(=O)Nc3ccc4c(c3)OCO4)ccc21	25.1 µM [rising, single point]
CCC(=O)Nc1c(C)ccc2nsnc12	0.00398 µM [falling, full curve, poor fit]
CCOc1ccc(S(=O)(=O)N(C)c2ccc(OCC(=O)OCc3c(C)noc3C)cc2)cc1	25.1 µM [rising, single point]
CNCCCN1c2ccccc2CCc2ccccc21	15.8 µM [falling, partial curve]
Cc1ccccc1Cn1c(=N)n(CC(O)c2ccco2)c2ccccc21 (stereo not drawn)	25.1 µM [rising, single point]
Cc1sc2ncnc(SCC(=O)c3cccs3)c2c1C	2 µM [rising, single point]
COc1ccc(-c2nnc(SCc3nnc(-c4ccccc4)o3)n2-c2ccccc2)cc1	1 µM [rising, partial curve]
CCN(CCNC(=O)C1CCCN(S(=O)(=O)CC)C1)c1ccccc1 (stereo not drawn)	0.00398 µM [falling, full curve]
c1coc(CNc2nc3sc4c(c3c3ncnn23)CCCC4)c1	12.6 µM [rising, partial curve]
Cc1nc(SCC(C)C)[nH]c(=O)c1Cc1ccccc1	15.8 µM [rising, partial curve]
Cc1ccc(-c2csc3ncn(-n4c(C)ccc4C)c(=O)c23)o1	3.98 µM [rising, full curve, poor fit]
Cc1nc2cnc(Nc3ccccc3)nc2n(C)c1=O	12.6 µM [rising, partial curve]
N#Cc1cccc(-c2nc(NCc3cccs3)c3ccccc3n2)c1	3.98 µM [rising, full curve]
O=C(Nc1ccc(O)cc1C(=O)O)c1cccc(Br)c1	0.00398 µM [falling, full curve, poor fit]
COc1ccc(CCNC(=O)CCS(=O)(=O)c2ccc3c(c2)CCN3C(C)=O)cc1OC	0.00316 µM [falling, full curve, poor fit]

Compound	AC50
CCOc1ccccc1OCCCC(=O)NC1=NCCS1	5.01 µM [falling, partial curve]
COc1ccc2cc(C(c3nnnn3C(C)(C)C)N3CCc4ccccc4C3)c(=O)[nH]c2c1 (stereo not drawn)	15.8 µM [rising, single point]
COc1ccccc1-n1c(SCC(=O)Nc2ccccc2F)nc2[nH]ncc2c1=O	1.58 µM [rising, partial curve]
CC(C)(C)c1ccc(-c2nnc3sc(-c4ccncc4)nn23)cc1	3.98 µM [falling, single point]
Cc1ccc(NC(=O)CSCC(N)=O)cc1C	25.1 µM [rising, single point]
Cc1nnc2sc(-c3cc4ccccc4o3)nn12	2.51 µM [rising, single point]
Cc1ccc2cc(C#N)c(N3CCCN(S(=O)(=O)c4ccccc4)CC3)nc2c1	6.31 µM [rising, partial curve]
COc1ccc(C2(C(=O)N3CCOCC3)CCOCC2)cc1OC	15.8 µM [rising, partial curve]
Cn1c(=O)[nH]c(=O)c2c1nc(Br)n2Cc1ccccc1F	12.6 µM [falling, partial curve, poor fit]
COCc1cc(C)nc(SCC(=O)Nc2ccc3c(c2)OCO3)c1C#N	12.6 µM [rising, single point]
Nn1c(SCC(=O)NC2CCCc3ccccc32)nnc1-c1cccs1 (stereo not drawn)	12.6 µM [rising, single point]
CN(C)/C=C1\C=C(c2ccccc2)OC1=O	0.00398 µM [falling, full curve, poor fit]
CCOC(=O)C1=C(c2ccccc2)NC(SC)=C(C#N)C1c1ccco1 (stereo not drawn)	10 µM [rising, single point]
CN(C(=O)c1ccc(Cl)cc1)C1=CCCCC1CCC#N (stereo not drawn)	31.6 µM [falling, single point]
CC(C)(C)NC(=O)COC(=O)c1ccc(O)cc1	0.1 µM [falling, single point]
CCC(C)NC(=O)Cn1cnc2sc(C)cc2c1=O (stereo not drawn)	0.398 µM [falling, partial curve]
Cc1cc(C)nc(N2CCCC(C(=O)NCc3cccs3)C2)n1 (stereo not drawn)	25.1 µM [rising, single point]
COC(=O)c1cc(COc2ccc3oc(C)c(C(=O)OC)c3c2)c(C)o1	3.16 µM [rising, full curve, poor fit]
Cc1cccc(C(=O)NCN2CCN(c3ccccc3C#N)CC2)c1	12.6 µM [falling, partial curve, poor fit]
CCN(Cc1cc2cccc(C)c2[nH]c1=O)C(=O)c1ccccc1OC	12.6 µM [rising, single point]
COc1cccc(Cn2c(=O)cnc3cnc(N(C)C)nc32)c1	10 µM [rising, partial curve]
Cc1nc2cnc(N3CCOCC3)nc2n(C[C@H]2CCCO2)c1=O	25.1 µM [rising, single point]
CCC(NC(=O)OC(C)(C)C)C(=O)Oc1ccc2c3c(c(=O)oc2c1)CCC3 (stereo not drawn)	15.8 µM [rising, single point]

Four structures from above, ordered by molecular weight, smallest number first:
Compound	AC50
Cc1cc(C)nc(N2CCCC(C(=O)NCc3cccs3)C2)n1 (stereo not drawn)	25.1 µM [rising, single point]
Cn1c(=O)[nH]c(=O)c2c1nc(Br)n2Cc1ccccc1F	12.6 µM [falling, partial curve, poor fit]
COC(=O)c1cc(COc2ccc3oc(C)c(C(=O)OC)c3c2)c(C)o1	3.16 µM [rising, full curve, poor fit]
Cc1ccc2cc(C#N)c(N3CCCN(S(=O)(=O)c4ccccc4)CC3)nc2c1	6.31 µM [rising, partial curve]

(listing goes on)

Compound	AC50
CN(C)CCNC(=O)c1cc2c(=O)n(C)c3ccccc3c2n1C	6.31 µM [rising, partial curve]
CCC(C)n1c(C)nc2c(c1=O)c1nc3ccccc3nc1n2-c1ccc2c(c1)OCCO2 (stereo not drawn)	25.1 µM [rising, single point]
O=C(c1cnccn1)N(c1ccccc1)C1(C(=O)NC2CCCCC2)CCCCC1	15.8 µM [rising, partial curve]
O=C(Nc1ccc(Cl)cc1)NC1CCS(=O)(=O)C1 (stereo not drawn)	0.501 µM [rising, partial curve]
Cc1ccc(C(CC(=O)O)Nc2nc(N3CCCCC3)nc(N3CCCCC3)n2)cc1 (stereo not drawn)	6.31 µM [rising, partial curve]
COc1ccc(NC(=O)C2C(=O)NC3(C)CC2c2ccccc2O3)cc1 (stereo not drawn)	0.316 µM [falling, partial curve, poor fit]
O=C(NC1CCCC1)c1sc(=S)n2c1[nH]c(=O)c1ccccc12	0.00794 µM [falling, full curve, poor fit]
Cc1cc(C)n2cc(CSc3nnc(-c4ccccc4)o3)nc2n1	12.6 µM [rising, partial curve]
OCCNc1ncnc2ccc(Br)cc12	25.1 µM [falling, partial curve, poor fit]
COc1ccccc1CNc1ncnc2ccc(-c3ccc(C(=O)N(C)C)cc3)cc12	7.94 µM [rising, partial curve]
CC(=O)C1=C(O)C(=O)N(CCc2c[nH]c3ccccc23)C1c1ccco1 (stereo not drawn)	12.6 µM [falling, partial curve, poor fit]
CC(C)(O)C1=NOC(c2ccccc2)C1 (stereo not drawn)	1 µM [falling, partial curve]
CCCCCCN1C(=O)C(O)=C(C(C)=O)C1c1ccc(Cl)cc1 (stereo not drawn)	0.631 µM [rising, full curve]
CCOC(=O)c1c(-c2cccs2)csc1NC(=O)CN1CC(C)OC(C)C1 (stereo not drawn)	2.51 µM [rising, full curve]
COc1ccc(OC)c(C2CC(=O)c3c([nH]c(C(=O)OC(C)C)c3C)C2)c1 (stereo not drawn)	2.51 µM [rising, full curve]
CS(=O)(=O)Nc1cccc(-c2cncnc2-n2ccnc2)c1	0.158 µM [rising, partial curve]
Cc1cc(C)c2c(=O)n(CC(=O)NCCCN3CCN(c4ccccc4F)CC3)sc2n1	25.1 µM [falling, single point]
CCc1nnc(NC(=O)CCC(=O)N2CCN(CCOc3ccc(C)cc3)CC2)s1	12.6 µM [rising, partial curve]
COCCCn1c(SCC(=O)Nc2ccc(C(C)=O)cc2)nc2ccccc2c1=O	10 µM [rising, partial curve]
COc1cccc(Cn2c(=O)c(CCc3ccccc3)nc3cnc(N4CCOCC4)nc32)c1	3.16 µM [rising, partial curve]
NC(=O)c1sc2nc(N3CCCCC3)c3c(c2c1N)CCCC3	2.51 µM [rising, partial curve]
O/N=C(\COc1ccccc1O)c1ccccc1	0.501 µM [falling, partial curve]
